In the supplement of paper PMC10849652:
Some of the results follow. Residues, ends and D or L forms follow the SMILES beside them. *: point of attachment. Cbz = O=C(OCc1ccccc1)*

Sequences of proteins named here, by UniProt entry; tags and fusion partners are left off. A change or cut given only in a name is not applied to a line headed by its entry.
UniProt Q9UL54: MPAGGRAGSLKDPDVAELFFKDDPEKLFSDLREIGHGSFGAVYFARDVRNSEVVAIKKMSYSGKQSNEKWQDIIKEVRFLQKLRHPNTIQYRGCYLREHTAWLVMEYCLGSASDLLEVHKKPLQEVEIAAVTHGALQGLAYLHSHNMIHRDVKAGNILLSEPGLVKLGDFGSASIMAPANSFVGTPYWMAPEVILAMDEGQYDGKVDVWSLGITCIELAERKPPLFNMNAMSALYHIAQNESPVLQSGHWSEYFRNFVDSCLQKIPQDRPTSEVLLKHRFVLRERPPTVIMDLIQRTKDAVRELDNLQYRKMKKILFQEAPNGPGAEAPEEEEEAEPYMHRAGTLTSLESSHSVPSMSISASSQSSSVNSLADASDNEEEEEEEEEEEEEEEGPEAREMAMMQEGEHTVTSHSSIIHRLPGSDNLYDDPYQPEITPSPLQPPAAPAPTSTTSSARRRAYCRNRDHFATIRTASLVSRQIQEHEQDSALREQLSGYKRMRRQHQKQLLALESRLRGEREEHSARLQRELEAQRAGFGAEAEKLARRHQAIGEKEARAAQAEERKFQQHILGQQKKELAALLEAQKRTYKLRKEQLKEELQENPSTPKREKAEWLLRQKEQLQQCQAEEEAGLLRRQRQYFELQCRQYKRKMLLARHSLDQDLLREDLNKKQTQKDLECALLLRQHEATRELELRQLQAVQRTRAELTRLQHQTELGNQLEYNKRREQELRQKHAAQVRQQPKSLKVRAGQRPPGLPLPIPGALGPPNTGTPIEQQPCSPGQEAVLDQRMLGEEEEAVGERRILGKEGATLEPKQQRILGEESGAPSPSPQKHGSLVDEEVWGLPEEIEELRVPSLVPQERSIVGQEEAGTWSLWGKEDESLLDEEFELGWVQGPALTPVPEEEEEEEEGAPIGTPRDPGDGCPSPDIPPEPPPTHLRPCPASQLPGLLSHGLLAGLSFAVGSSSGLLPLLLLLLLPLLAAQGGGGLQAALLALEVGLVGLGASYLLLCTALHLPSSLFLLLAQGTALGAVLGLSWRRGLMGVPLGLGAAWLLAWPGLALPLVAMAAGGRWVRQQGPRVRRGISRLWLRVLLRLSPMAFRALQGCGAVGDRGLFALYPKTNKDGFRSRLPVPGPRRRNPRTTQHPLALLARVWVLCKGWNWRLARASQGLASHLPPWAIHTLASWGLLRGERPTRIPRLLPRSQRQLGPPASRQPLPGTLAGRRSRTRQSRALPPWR
UniProt Q9Y2Z0: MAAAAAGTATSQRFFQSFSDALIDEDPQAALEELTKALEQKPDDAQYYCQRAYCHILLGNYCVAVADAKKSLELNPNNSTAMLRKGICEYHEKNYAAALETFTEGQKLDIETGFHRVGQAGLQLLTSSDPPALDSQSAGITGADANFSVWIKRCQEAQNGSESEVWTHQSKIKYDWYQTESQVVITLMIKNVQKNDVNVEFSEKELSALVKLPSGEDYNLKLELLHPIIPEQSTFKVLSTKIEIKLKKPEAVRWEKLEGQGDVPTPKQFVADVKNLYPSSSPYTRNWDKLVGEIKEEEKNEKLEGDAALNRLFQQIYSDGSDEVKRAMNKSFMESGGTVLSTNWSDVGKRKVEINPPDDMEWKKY
UniProt Q15022: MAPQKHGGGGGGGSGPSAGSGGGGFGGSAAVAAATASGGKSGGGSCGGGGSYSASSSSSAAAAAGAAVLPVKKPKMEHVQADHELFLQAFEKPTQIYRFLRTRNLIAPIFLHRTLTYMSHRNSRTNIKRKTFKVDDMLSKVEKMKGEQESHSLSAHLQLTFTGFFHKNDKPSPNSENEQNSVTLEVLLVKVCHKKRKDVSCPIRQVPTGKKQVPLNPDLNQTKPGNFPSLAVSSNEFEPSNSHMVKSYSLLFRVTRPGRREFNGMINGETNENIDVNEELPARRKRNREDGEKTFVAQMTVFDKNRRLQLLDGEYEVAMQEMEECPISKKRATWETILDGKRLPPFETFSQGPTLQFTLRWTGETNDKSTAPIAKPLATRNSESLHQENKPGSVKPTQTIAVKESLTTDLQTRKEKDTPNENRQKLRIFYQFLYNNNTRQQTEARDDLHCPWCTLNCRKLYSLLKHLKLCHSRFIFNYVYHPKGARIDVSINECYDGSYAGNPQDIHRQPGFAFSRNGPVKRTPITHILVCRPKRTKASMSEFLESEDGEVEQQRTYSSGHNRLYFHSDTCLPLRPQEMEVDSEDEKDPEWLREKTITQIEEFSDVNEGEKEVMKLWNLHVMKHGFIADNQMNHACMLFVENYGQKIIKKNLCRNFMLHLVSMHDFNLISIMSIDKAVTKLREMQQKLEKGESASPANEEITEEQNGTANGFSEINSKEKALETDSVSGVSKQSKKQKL
UniProt Q6UWL2: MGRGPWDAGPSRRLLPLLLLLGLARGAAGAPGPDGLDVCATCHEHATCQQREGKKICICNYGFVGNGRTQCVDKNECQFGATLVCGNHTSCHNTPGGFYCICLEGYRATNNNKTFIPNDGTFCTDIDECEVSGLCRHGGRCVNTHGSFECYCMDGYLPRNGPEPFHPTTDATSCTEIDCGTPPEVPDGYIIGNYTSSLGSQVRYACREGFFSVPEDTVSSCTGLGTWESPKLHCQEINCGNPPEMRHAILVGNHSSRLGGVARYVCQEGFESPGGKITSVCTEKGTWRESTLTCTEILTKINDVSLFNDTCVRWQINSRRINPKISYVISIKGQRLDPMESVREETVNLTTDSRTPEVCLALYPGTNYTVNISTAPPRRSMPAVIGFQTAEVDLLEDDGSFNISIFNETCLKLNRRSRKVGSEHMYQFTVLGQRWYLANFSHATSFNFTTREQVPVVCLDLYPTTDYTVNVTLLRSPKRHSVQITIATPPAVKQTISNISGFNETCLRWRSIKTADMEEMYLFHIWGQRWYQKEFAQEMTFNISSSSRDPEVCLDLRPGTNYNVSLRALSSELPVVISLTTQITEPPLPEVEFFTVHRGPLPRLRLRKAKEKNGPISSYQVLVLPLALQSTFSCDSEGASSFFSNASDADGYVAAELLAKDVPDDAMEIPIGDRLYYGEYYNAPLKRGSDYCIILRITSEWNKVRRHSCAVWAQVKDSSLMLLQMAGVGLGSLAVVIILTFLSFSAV
UniProt P49888: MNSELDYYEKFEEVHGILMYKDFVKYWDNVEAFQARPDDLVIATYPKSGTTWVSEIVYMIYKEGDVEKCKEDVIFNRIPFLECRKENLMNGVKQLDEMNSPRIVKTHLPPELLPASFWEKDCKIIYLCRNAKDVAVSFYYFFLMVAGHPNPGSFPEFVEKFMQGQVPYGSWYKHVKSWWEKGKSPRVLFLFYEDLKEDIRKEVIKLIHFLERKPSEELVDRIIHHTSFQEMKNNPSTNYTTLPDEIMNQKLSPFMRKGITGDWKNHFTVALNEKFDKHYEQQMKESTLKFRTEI
UniProt Q9UK61: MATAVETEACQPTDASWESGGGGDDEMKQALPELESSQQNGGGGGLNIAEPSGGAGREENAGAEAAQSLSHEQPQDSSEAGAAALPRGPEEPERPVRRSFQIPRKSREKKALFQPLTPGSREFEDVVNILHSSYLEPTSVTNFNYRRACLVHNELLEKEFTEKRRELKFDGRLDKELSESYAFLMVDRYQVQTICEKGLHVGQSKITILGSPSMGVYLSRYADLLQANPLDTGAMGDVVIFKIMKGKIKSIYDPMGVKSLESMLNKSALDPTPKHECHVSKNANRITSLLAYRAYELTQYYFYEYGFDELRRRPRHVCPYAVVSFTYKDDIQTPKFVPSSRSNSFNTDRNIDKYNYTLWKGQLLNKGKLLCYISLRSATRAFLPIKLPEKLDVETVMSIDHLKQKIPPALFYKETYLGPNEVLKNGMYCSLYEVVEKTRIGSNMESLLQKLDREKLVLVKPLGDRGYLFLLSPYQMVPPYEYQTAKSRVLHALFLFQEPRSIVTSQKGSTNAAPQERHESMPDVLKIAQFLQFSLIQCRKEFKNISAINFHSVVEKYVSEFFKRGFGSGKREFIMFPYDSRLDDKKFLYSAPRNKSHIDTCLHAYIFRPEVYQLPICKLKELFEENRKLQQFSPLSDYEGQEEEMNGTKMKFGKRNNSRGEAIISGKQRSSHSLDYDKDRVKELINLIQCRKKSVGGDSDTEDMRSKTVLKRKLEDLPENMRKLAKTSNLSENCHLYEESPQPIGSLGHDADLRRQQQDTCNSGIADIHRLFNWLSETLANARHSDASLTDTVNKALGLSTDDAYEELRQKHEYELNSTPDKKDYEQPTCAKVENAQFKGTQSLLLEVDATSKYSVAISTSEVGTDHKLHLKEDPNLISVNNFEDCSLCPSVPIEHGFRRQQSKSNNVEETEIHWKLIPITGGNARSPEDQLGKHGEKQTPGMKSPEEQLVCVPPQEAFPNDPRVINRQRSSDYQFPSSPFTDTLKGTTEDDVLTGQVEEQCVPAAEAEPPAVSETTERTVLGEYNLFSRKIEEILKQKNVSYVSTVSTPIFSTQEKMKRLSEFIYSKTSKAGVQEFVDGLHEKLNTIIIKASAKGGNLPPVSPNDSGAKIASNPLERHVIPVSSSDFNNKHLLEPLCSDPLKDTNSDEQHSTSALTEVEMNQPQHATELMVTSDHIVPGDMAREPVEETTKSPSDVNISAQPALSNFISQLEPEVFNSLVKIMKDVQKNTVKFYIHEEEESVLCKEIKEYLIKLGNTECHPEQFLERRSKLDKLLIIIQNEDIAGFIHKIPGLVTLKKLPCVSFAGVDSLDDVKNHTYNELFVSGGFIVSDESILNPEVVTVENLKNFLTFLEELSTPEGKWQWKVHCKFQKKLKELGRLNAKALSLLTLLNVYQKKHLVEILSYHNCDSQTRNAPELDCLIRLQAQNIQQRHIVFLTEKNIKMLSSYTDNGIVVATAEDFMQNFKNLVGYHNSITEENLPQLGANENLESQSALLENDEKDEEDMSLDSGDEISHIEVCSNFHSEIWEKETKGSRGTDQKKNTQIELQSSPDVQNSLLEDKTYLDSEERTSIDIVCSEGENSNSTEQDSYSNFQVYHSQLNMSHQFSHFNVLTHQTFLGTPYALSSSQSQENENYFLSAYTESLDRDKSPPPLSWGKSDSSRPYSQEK
UniProt Q8WUJ0: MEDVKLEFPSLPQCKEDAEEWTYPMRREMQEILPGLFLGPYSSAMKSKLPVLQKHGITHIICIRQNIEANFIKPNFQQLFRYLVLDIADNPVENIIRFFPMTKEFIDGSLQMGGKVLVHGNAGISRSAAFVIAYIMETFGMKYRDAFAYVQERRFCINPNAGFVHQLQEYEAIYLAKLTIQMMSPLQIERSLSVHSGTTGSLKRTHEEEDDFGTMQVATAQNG
UniProt Q15544, whole entry, looked up: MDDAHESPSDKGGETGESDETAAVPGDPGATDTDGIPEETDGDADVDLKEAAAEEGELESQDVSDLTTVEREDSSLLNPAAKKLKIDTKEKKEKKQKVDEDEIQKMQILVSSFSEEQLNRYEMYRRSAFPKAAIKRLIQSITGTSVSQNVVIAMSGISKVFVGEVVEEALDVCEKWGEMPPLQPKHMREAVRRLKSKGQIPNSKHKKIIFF
UniProt O43759: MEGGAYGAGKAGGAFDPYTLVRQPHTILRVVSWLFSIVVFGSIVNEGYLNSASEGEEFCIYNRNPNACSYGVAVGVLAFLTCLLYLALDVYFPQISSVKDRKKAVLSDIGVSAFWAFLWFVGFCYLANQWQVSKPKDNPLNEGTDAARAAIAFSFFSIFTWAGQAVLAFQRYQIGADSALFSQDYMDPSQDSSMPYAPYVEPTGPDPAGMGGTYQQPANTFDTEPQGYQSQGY
UniProt Q9H6P5: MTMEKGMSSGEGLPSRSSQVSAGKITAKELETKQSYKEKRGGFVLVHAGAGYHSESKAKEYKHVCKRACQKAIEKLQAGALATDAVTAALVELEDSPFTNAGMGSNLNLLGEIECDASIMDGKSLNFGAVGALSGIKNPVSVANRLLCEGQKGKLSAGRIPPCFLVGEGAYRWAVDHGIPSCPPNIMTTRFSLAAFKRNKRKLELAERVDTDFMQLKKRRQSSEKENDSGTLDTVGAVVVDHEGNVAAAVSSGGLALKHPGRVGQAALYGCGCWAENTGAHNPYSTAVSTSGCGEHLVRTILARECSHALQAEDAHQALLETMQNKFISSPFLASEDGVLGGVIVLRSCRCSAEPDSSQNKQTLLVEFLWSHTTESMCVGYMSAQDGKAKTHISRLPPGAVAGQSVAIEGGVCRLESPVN
UniProt Q8N2I9: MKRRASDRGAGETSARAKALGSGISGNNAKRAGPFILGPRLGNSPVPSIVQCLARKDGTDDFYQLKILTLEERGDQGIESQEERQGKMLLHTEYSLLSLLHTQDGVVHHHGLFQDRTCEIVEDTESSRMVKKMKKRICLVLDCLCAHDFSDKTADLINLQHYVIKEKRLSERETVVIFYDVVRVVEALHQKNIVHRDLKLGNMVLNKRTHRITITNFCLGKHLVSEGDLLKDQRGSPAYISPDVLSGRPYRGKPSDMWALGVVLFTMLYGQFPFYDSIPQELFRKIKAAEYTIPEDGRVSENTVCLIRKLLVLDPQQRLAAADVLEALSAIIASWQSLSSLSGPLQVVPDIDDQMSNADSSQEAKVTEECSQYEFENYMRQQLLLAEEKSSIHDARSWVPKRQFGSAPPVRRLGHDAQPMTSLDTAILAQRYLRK

Key:
Assay in all cases: log2 fold change, soluble protein after heating vs DMSO (PISA); higher = thermal stabilisation; K562 cells, 10 uM, 30 min; active = over 0.2 and 3.5 SD of the protein, either way, in both replicates (recomputed)
erlotinib = compound: C#Cc1cccc(Nc2ncnc3cc(OCCOC)c(OCCOC)cc23)c1 [erlotinib]
Outline: (§1)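 K562 cells at 2×10^6 cells/mL were exposed to 10 μM compound for 30 min, then aliquots were heated for 3 min across 48°C-58°C, pooled, and extracted in PBS containing 0.5% NP-40 at 4°C. The supernatant after 21,000xg for 90 min was taken as soluble protein and measured by TMTpro 16plex LC-MS/MS with channel sums equalised. Thermal stability is reported relative to control samples, with values from duplicates. Fold changes are given on a log2 scale.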

[1] = compound: C1=CC(=C(C=C1Cl)C2=NC3=NC=CN=C3C(=N2)NC4=CC=NC=C4)F
Outline: as §1

[2] = compound: C1=CC(=CC=C1C2=NC3=C(N2)C=C(C=C3)C(=O)N)OC4=CC=C(C=C4)Cl
Outline: as §1

[3] = compound: C1=CC=C(C=C1)C2=NC(=C(N2)C3=CC=NC=C3)C4=CC(=C(C=C4)Cl)O
Outline: as §1

[4] = compound: C1CCN(C1)C(=O)NC2=CC=CC(=C2)NC3=NC=C(C(=N3)NCCC4=CN=CN4)Br
Outline: as §1

[5] = compound: C1CN(CCC1(CC2=CC=C(C=C2)Cl)N)C3=NC=NC4=C3C=CN4
Outline: as §1

IRAK-1-4 Inhibitor I = compound: C1COCCN1CCN2C3=CC=CC=C3N=C2NC(=O)C4=CC(=CC=C4)[N+](=O)[O-] [IRAK-1-4 Inhibitor I]
Outline: as §1

ralimetinib = compound: CC(C)(C)Cn1c(N)nc2ccc(-c3[nH]c(C(C)(C)C)nc3-c3ccc(F)cc3)nc21 [ralimetinib]
Outline: as §1

[6] = compound: CC(C)(O)CC(=O)NCCn1ccc2ncnc(Nc3ccc(Oc4cccc(C(F)(F)F)c4)c(Cl)c3)c21
Outline: as §1

[7] = compound: CC(C)C1=C2N=C(C=C(N2N=C1)NCC3=CC=CC=C3)NCCCCCCN
Outline: as §1

[8] = compound: CC(C)C[C@@H](C=O)NC(=O)[C@H](CC(C)C)NC(=O)[C@H](CC(C)C)NC(=O)OCc1ccccc1
Outline: as §1

pinometostat = compound: CC(C)N(C[C@H]1O[C@@H](n2cnc3c(N)ncnc32)[C@H](O)[C@@H]1O)[C@H]1C[C@@H](CCc2nc3cc(C(C)(C)C)ccc3[nH]2)C1 [pinometostat]
Outline: as §1

[9] = compound: CC1=C(C2=C(C=C1)C(=O)C3=CC=CC=C3N2CCCN)C
Outline: as §1

[10] = compound: C1=CC2=NC=CN=C2C=C1/C=C/3\C(=O)NC(=O)S3
Outline: as §1

ibrutinib = compound: C=CC(=O)N1CCC[C@@H](n2nc(-c3ccc(Oc4ccccc4)cc3)c3c(N)ncnc32)C1 [ibrutinib]
Outline: as §1

[11] = compound: C/C(=N\NC(=O)C1=CC(=CC=C1)S(=O)(=O)N2CCOCC2)/C3=C(C=CC(=C3)Cl)O
Outline: as §1

[12] = compound: C1=CC2=C(C=CC(=C2)/C=C\3/C(=O)NC(=NCC4=CC=CS4)S3)N=C1
Outline: as §1

[13] = compound: C1=CC=C2C(=C1)C3=NNC4=CC=CC(=C43)C2=O
Outline: as §1

[14] = compound: CC(=O)c1cnc2ccc(-c3cc(Cl)c(O)c(Cl)c3)nc2c1N[C@H]1CC[C@H](CN(C)C)CC1
Outline: as §1

[15] = compound: CC1=C(C(CC(=O)N1)C2=CC=C(C=C2)C(F)(F)F)C(=O)NC3=C(C=C4C(=C3)C=NN4)F
Outline: as §1

Measured: log2 fold change

TAOK2 (UniProt Q9UL54)
inactive: erlotinib -0.043 | [1] -0.019 | [2] 0.156 | [3] 0.029 | [4] -0.014 | [5] 0.029 | IRAK-1-4 Inhibitor I -0.132 | ralimetinib 0.09 | [6] -0.041 | [7] 0.083 | [8] 0.001 | pinometostat 0.031 | [9] 0.127

SUGT1 isoform 2 (UniProt Q9Y2Z0)
inactive: erlotinib -0.008 | [2] 0.042 | [10] 0.005 | [3] -0.112 | [4] -0.054 | [5] 0.007 | IRAK-1-4 Inhibitor I 0 | ibrutinib 0.025 | ralimetinib -0.035 | [7] 0.016 | [8] 0.133 | pinometostat 0.053 | [9] 0.096

SVBP (UniProt Q8N300)
inactive: [11] -0.058 | [1] 0.039 | [12] 0.02 | [10] -0.068 | [3] -0.052 | [13] 0.017 | [4] -0.038 | [5] 0.012 | ibrutinib 0.019 | [14] 0.011 | ralimetinib 0.029 | [6] -0.061 | [8] 0.147 | [9] -0.032

STXBP5L (UniProt Q9Y2K9)
inactive: erlotinib -0.027 | [2] 0.007 | IRAK-1-4 Inhibitor I 0.09 | [7] -0.196 | pinometostat -0.083 | [15] -0.05

TAF2 (UniProt Q6P1X5)
inactive: [11] -0.05 | [1] -0.189 | [12] -0.114 | [10] -0.175 | [3] -0.066 | [13] 0.017 | [4] 0.141 | [5] -0.523 | IRAK-1-4 Inhibitor I 0.026 | ibrutinib -0.01 | [14] -0.204 | ralimetinib 0.027 | [6] 0.029 | [8] 0.061 | pinometostat 0.209 | [15] 0.058 | [9] -0.055

TAGLN3 (UniProt Q9UI15)
inactive: [11] -0.189 | [1] 0.054 | [12] 0.078 | [10] 0.156 | [13] 0.042 | [4] 0.218 | [5] 0.058 | IRAK-1-4 Inhibitor I -0.006 | ibrutinib -0.126 | [14] -0.055 | [6] -0.02 | pinometostat -0.082 | [9] -0.07

TAB2 (UniProt Q9NYJ8)
inactive: [1] -0.182 | [3] -0.014 | [4] -0.159 | [5] -0.315 | ralimetinib 0.043 | [6] 0.016 | [8] 0.106 | [9] 0.038

TAF5 (UniProt Q15542)
inactive: erlotinib -0.019 | [1] 0 | [2] -0.027 | [3] -0.105 | IRAK-1-4 Inhibitor I -0.231 | ralimetinib 0.246 | [6] 0.18 | [7] -0.022 | [8] 0.131 | pinometostat 0.38

TADA1 (UniProt Q96BN2)
inactive: erlotinib 0.147 | [2] -0.051 | [7] -0.045

SUPT3H isoform 4 (UniProt O75486)
inactive: [3] -0.024 | ralimetinib 0.106 | [8] -0.103

SUPT7L (UniProt O94864)
inactive: erlotinib 0.204 | [2] -0.029 | [10] 0.2 | [3] -0.008 | IRAK-1-4 Inhibitor I -0.052 | ibrutinib -0.093 | ralimetinib 0.105 | [7] -0.207 | [8] -0.048 | pinometostat 0.059 | [15] -0.004

TAF13 (UniProt Q15543)
inactive: [1] -0.372 | [3] -0.106 | [4] 0.077 | [5] 0.067 | ralimetinib 0.038 | [6] 0.215 | [8] -0.172 | [9] 0.006

SUZ12 (UniProt Q15022)
inactive: [11] -0.025 | [12] -0.069 | [3] -0.093 | [13] 0.032 | IRAK-1-4 Inhibitor I 0.001 | [14] -0.021 | ralimetinib -0.12 | [8] 0.124 | pinometostat 0.065 | [15] 0.005

TBC1D10A (UniProt Q9BXI6)
inactive: [1] -0.081 | [10] 0.177 | [3] -0.038 | [4] -0.003 | [5] -0.056 | IRAK-1-4 Inhibitor I -0.027 | ibrutinib -0.077 | ralimetinib 0.142 | [6] -0.107 | [8] 0.142 | pinometostat 0.15 | [9] 0.01

SUSD1 isoform 2 (UniProt Q6UWL2)
inactive: erlotinib -0.013 | [11] -0.053 | [2] 0 | [12] 0.073 | [10] 0.001 | [13] -0.036 | IRAK-1-4 Inhibitor I -0.066 | ibrutinib -0.007 | [14] -0.084 | [7] 0.085 | pinometostat -0.002 | [15] -0.012

SUFU (UniProt Q9UMX1)
inactive: erlotinib 0.113 | [11] 0.194 | [2] -0.138 | [12] -0.093 | [10] -0.041 | [13] 0.162 | ibrutinib 0.182 | [14] 0.03 | [7] -0.298

TAGLN (UniProt Q01995)
inactive: erlotinib 0.125 | [2] -0.008 | [10] -0.122 | IRAK-1-4 Inhibitor I 0.172 | ibrutinib 0.09 | [7] 0.276 | pinometostat 0.037

TATDN1 isoform 2 (UniProt Q6P1N9)
inactive: erlotinib 0.278 | [2] -0.165 | [3] -0.046 | ralimetinib 0.023 | [7] 0.344 | [8] -0.065

SULT1E1 (UniProt P49888)
inactive: erlotinib -0.191 | [2] 0.095 | [10] 0.003 | ibrutinib 0.147 | [7] 0.009 | [15] 0.005

STK36 (UniProt Q9NRP7)
inactive: erlotinib 0.1 | [11] -0.096 | [2] 0.063 | [12] -0.002 | [10] -0.02 | [3] 0.231 | [13] 0 | ibrutinib 0.097 | [14] -0.095 | ralimetinib 0.333 | [7] -0.301 | [8] 0.088 | [15] 0.024

TASOR (UniProt Q9UK61)
inactive: [3] -0.04 | ralimetinib -0.03 | [8] 0.008

TAF5L (UniProt O75529)
inactive: [10] -0.063 | ibrutinib -0.017

STYX (UniProt Q8WUJ0)
inactive: erlotinib -0.046 | [2] -0.027 | [3] -0.101 | [4] -0.033 | [5] 0.019 | ralimetinib -0.22 | [7] -0.198 | [8] -0.093 | [9] 0.113

STON2 isoform 3 (UniProt Q8WXE9)
inactive: [3] -0.002 | [4] 0.102 | [5] 0.017 | IRAK-1-4 Inhibitor I 0.006 | ralimetinib 0.147 | [8] 0.005 | pinometostat 0.009 | [15] 0.015 | [9] -0.211

TACC3 (UniProt C9JWI7)
inactive: [3] -0.219 | ralimetinib -0.099 | [8] 0.155

TAF6L (UniProt Q9Y6J9)
inactive: erlotinib 0.042 | [11] 0.08 | [2] -0.132 | [12] 0.009 | [3] -0.051 | [13] 0.088 | [4] -0.069 | [5] -0.197 | [14] 0.054 | ralimetinib -0.092 | [7] 0.023 | [8] 0.122 | [9] -0.03

SYS1 (UniProt Q8N2H4)
inactive: erlotinib 0.182 | [2] -0.103 | [3] 0.005 | ralimetinib 0.057 | [7] 0.036 | [8] -0.037

Reprinted at random: 3 entries already listed.
TAOK2 (UniProt Q9UL54)
inactive: erlotinib -0.043 | [1] -0.019 | [2] 0.156 | [3] 0.029 | [4] -0.014 | [5] 0.029 | IRAK-1-4 Inhibitor I -0.132 | ralimetinib 0.09 | [6] -0.041 | [7] 0.083 | [8] 0.001 | pinometostat 0.031 | [9] 0.127

TATDN1 isoform 2 (UniProt Q6P1N9)
inactive: erlotinib 0.278 | [2] -0.165 | [3] -0.046 | ralimetinib 0.023 | [7] 0.344 | [8] -0.065

TAF5L (UniProt O75529)
inactive: [10] -0.063 | ibrutinib -0.017

The results go on.

TAF11 (UniProt Q15544)
inactive: erlotinib -0.002 | [11] -0.086 | [2] 0.002 | [12] -0.059 | [10] -0.044 | [3] -0.087 | [13] 0.013 | [4] 0.029 | [5] 0.031 | ibrutinib 0.037 | [14] 0.052 | ralimetinib -0.007 | [7] -0.097 | [8] 0.093 | [9] 0.054

SUGP2 (UniProt Q8IX01)
inactive: [1] -0.667 | [6] 0.137 | [15] 0.034

TAZ (UniProt Q16635)
inactive: [3] 0.06 | ralimetinib -0.135 | [8] -0.016

STOML1 (UniProt Q9UBI4)
inactive: [3] 0.175 | [4] 0.052 | [5] -0.105 | ralimetinib -0.004 | [8] 0.124 | [9] -0.021

TAF9B (UniProt Q9HBM6)
inactive: erlotinib 0.008 | [1] -0.087 | [2] -0.097 | [10] 0.153 | [4] 0.041 | [5] 0.131 | IRAK-1-4 Inhibitor I 0.081 | ibrutinib -0.102 | [6] -0.003 | [7] 0.005 | pinometostat -0.016 | [9] 0.057

SYNGR1 isoform 3 (UniProt O43759)
inactive: [4] -0.102 | [5] 0.139 | [9] 0.137

TASP1 (UniProt Q9H6P5)
inactive: erlotinib 0.315 | [1] -0.622 | [2] -0.001 | [6] 0.11 | [7] 0.12 | [15] 0.007

STK35 (UniProt Q8TDR2)
inactive: [11] -0.166 | [12] 0.231 | [3] 0.073 | [13] 0.083 | [14] -0.085 | ralimetinib -0.038 | [8] 0.083 | [15] -0.142

STXBP4 (UniProt Q6ZWJ1)
inactive: [1] -0.345 | IRAK-1-4 Inhibitor I 0.089 | [6] 0.032 | pinometostat -0.042

STS (UniProt P08842)
inactive: [11] 0.12 | [12] -0.003 | [10] 0.265 | [13] 0.007 | ibrutinib 0.079 | [14] -0.141

TAF12 (UniProt Q16514)
inactive: erlotinib 0.041 | [2] 0.007 | [10] 0.014 | [4] -0.01 | [5] -0.044 | IRAK-1-4 Inhibitor I 0.066 | ibrutinib -0.04 | [7] 0.019 | pinometostat -0.013 | [15] 0.048 | [9] -0.069

STK40 isoform 4 (UniProt Q8N2I9)
inactive: [11] 0.192 | [12] -0.118 | [13] -0.317 | [14] -0.414
